# According to paper PMC12554370:
# Protein sequences, listed by entry. Tags and fused reporters are not part of them.
# UniProt A0A498JN73, entry or part of it: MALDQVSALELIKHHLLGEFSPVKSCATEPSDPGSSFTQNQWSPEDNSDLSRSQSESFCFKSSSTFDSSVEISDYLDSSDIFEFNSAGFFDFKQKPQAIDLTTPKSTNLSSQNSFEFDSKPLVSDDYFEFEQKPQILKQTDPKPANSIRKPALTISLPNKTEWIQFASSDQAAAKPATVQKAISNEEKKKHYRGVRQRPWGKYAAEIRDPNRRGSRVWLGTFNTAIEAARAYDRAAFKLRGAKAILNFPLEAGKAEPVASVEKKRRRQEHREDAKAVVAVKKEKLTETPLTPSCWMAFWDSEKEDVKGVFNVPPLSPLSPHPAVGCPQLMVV
# Construct, isoform or probe ends are uncertain for at least one entry. Weaker means in comparison with the reference protein, sequence or condition of that experiment.
# Target: MdERF5L (Malus domestica) (UniProt A0A498JN73)
# Test: EMSA
# Conditions: increasing MdWRKY9 (interacts with MdERF5L); LightShift Chemiluminescent EMSA kit (Thermo), per manufacturer's protocol; pH and temperature not stated; recombinant protein; protein details: GST (pGEX-4T-1); label: biotin (hot probe)
sequence,measurement,value
AAAATAGAGGAGAAAAATGGCCGACAAAATTTGTTGTGGCTACTA (double strand) [MdACS1-DRE probe],binding result,binds more weakly
